Reference: patent publication US20180371054A1
These are yes or no findings as the source states them, for the method shown. Some results given as binding are weak or reduced against the parent protein; the word gives no strength.

The chains behind the UniProt entries cited, without tags or fusion partners. Residues count along the entry.
UniProt P20273, residues 20-687: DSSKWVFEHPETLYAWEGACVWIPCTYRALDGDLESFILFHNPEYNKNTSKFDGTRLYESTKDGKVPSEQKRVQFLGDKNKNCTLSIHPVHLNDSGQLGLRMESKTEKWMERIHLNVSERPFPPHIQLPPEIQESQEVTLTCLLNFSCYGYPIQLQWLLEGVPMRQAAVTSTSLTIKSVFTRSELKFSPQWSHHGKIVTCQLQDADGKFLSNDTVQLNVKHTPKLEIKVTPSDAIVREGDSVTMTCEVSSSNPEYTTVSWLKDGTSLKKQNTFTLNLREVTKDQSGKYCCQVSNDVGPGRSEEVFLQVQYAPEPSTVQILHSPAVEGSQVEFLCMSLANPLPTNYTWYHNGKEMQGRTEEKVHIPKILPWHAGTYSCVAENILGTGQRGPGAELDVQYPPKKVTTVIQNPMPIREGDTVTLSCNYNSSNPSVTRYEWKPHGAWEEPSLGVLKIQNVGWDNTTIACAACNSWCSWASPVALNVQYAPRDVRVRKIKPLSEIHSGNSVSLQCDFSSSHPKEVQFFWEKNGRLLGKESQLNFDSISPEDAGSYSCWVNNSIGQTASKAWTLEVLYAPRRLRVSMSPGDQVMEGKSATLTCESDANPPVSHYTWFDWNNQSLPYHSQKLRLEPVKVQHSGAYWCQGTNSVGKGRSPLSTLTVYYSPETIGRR

Target: CD22 (human) (UniProt P20273)
Test: SPR (Biacore T200), scFv-Fc captured on anti-IgG CM5 chip, antigen injected

B1: Humanised CD22ALAb scFv (scFv, not shown: a dimerising Fc or GST)
scFv: EVQLVESGAEVKKPGSSVKVSCKASGYTFTNYWINWVRQAPGQGLEWIGNIYPSDSFTNYNQKFKDRATLTVDKSTSTAYLELRNLRSDDTAVYYCTRDTQERSWYFDVWGQGTLVTVSSDIVMTQSPATLSVSPGERATLSCRSSQSLVHSNGNTYLHWYQQKPGQAPRLLIYKVSNRFSGVPARFSGSGSGVEFTLTISSLQSEDFAVYYCSQSTHVPWTFGQGTRLEIK
binding: binds
